Source: the supplement of paper PMC11732987, “Enantioselective OTUD7B fragment discovery through chemoproteomics screening and high-throughput optimisation” (Communications Chemistry, 2025)
This is one part of the list. The data scatter; read single values as rough.

By UniProt entry, the sequences of proteins in these tests, tags left out. Where a name states a change or a piece, a line headed by the entry shows the natural chain unless it says otherwise. Residues count along the entry.
UniProt Q9Y5J1: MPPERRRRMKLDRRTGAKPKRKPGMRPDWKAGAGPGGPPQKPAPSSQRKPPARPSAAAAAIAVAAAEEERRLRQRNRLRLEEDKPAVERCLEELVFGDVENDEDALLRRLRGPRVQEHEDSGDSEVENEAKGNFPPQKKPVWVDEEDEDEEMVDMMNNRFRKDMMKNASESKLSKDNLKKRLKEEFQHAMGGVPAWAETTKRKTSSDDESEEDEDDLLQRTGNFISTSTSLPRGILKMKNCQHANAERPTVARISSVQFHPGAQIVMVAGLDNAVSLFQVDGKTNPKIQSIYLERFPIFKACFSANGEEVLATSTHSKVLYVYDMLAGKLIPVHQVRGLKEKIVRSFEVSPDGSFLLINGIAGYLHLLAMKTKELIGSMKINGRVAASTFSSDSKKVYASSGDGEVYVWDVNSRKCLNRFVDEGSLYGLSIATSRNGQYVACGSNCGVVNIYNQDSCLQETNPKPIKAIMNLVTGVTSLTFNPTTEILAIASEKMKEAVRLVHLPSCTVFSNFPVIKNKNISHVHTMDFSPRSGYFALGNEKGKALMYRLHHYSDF
UniProt Q9Y6I4: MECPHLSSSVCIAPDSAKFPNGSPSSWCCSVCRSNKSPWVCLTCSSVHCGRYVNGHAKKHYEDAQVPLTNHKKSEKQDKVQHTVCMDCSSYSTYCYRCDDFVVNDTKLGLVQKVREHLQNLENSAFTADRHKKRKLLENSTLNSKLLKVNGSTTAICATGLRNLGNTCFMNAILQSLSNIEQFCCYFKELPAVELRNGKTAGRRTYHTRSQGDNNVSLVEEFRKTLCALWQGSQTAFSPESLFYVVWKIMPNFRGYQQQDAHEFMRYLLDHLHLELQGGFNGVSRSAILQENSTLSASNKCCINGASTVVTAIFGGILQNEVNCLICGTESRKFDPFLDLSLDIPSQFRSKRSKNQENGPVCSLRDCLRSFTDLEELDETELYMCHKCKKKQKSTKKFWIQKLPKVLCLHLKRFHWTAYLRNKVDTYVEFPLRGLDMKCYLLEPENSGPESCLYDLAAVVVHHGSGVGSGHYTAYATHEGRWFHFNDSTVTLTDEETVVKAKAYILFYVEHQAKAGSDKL
UniProt Q8NBZ7: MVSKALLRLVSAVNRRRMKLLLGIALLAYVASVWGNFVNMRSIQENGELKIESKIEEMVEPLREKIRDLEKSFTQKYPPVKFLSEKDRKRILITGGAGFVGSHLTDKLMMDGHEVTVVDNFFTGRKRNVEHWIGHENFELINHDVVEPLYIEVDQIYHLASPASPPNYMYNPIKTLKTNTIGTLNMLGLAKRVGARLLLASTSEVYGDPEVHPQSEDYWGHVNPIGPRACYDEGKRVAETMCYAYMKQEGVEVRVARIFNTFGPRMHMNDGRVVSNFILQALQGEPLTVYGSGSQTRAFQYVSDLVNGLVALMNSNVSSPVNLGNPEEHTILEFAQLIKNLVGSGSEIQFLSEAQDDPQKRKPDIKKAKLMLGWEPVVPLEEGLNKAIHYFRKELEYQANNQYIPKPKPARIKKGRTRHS
UniProt O94782, 54-73: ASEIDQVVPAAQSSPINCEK
UniProt Q9C0B0: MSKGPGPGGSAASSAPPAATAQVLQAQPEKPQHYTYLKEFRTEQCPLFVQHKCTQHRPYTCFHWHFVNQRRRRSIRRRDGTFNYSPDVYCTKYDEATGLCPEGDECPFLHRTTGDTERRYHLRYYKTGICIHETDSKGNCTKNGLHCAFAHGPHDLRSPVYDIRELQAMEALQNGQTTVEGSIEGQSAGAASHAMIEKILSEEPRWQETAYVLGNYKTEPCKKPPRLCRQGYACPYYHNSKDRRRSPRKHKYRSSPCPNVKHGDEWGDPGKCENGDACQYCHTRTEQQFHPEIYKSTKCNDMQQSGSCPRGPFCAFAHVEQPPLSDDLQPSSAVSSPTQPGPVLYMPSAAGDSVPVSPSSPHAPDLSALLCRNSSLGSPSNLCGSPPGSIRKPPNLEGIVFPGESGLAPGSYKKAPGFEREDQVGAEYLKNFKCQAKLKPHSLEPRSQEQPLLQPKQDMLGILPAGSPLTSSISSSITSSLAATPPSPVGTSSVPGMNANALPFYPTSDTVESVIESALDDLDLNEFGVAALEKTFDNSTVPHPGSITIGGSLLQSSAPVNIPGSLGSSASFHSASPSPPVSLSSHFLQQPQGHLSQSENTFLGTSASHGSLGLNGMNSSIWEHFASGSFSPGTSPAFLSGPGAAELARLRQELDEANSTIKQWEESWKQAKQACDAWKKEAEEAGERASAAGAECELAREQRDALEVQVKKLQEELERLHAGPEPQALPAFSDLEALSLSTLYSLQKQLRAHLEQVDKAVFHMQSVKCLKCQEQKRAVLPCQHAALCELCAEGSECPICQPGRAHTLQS
UniProt Q9H9J4: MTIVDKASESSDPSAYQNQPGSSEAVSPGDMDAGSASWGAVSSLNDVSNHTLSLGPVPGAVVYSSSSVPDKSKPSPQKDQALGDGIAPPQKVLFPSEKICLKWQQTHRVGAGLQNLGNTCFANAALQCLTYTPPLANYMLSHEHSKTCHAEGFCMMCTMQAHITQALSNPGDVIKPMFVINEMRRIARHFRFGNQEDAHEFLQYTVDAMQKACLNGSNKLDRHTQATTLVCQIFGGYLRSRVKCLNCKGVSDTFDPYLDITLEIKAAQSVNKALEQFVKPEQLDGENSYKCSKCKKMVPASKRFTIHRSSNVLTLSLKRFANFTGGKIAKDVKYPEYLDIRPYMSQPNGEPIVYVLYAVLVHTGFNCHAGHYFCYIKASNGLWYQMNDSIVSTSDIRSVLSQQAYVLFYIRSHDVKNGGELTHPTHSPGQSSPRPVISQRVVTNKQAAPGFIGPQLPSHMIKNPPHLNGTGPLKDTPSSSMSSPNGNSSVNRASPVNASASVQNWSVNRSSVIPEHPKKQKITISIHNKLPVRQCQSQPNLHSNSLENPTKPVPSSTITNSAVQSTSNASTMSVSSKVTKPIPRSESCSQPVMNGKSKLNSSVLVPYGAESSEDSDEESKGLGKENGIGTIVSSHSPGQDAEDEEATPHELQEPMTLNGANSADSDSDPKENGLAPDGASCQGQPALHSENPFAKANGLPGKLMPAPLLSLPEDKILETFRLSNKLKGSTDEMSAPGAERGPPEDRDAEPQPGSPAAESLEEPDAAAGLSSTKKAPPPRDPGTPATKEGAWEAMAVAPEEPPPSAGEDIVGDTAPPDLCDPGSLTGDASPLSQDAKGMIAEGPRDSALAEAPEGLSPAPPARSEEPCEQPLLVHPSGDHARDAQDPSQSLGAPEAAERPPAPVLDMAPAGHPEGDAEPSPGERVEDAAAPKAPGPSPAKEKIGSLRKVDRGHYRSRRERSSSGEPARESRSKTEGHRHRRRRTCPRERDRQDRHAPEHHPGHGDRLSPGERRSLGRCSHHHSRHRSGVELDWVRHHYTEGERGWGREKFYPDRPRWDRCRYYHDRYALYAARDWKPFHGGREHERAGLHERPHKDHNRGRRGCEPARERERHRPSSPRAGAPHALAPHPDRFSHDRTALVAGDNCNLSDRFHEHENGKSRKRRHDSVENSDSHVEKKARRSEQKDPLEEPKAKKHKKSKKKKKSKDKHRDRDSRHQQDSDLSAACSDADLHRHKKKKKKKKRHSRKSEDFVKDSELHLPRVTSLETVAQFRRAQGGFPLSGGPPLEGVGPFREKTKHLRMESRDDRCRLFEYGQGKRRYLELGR
UniProt P22695: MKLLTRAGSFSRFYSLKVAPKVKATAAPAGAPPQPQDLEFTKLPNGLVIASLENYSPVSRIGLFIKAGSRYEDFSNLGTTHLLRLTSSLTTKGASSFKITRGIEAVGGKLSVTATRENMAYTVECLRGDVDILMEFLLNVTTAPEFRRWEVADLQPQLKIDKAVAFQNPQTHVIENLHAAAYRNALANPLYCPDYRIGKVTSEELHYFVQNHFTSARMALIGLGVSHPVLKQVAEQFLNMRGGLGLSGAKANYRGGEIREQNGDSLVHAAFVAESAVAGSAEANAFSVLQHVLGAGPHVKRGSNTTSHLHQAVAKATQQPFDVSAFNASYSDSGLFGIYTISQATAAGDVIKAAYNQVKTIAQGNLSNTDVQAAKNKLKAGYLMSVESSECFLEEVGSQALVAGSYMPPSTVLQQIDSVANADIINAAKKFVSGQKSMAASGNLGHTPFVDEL
UniProt Q9UPU5, 1-24: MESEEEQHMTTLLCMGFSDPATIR
UniProt O60287: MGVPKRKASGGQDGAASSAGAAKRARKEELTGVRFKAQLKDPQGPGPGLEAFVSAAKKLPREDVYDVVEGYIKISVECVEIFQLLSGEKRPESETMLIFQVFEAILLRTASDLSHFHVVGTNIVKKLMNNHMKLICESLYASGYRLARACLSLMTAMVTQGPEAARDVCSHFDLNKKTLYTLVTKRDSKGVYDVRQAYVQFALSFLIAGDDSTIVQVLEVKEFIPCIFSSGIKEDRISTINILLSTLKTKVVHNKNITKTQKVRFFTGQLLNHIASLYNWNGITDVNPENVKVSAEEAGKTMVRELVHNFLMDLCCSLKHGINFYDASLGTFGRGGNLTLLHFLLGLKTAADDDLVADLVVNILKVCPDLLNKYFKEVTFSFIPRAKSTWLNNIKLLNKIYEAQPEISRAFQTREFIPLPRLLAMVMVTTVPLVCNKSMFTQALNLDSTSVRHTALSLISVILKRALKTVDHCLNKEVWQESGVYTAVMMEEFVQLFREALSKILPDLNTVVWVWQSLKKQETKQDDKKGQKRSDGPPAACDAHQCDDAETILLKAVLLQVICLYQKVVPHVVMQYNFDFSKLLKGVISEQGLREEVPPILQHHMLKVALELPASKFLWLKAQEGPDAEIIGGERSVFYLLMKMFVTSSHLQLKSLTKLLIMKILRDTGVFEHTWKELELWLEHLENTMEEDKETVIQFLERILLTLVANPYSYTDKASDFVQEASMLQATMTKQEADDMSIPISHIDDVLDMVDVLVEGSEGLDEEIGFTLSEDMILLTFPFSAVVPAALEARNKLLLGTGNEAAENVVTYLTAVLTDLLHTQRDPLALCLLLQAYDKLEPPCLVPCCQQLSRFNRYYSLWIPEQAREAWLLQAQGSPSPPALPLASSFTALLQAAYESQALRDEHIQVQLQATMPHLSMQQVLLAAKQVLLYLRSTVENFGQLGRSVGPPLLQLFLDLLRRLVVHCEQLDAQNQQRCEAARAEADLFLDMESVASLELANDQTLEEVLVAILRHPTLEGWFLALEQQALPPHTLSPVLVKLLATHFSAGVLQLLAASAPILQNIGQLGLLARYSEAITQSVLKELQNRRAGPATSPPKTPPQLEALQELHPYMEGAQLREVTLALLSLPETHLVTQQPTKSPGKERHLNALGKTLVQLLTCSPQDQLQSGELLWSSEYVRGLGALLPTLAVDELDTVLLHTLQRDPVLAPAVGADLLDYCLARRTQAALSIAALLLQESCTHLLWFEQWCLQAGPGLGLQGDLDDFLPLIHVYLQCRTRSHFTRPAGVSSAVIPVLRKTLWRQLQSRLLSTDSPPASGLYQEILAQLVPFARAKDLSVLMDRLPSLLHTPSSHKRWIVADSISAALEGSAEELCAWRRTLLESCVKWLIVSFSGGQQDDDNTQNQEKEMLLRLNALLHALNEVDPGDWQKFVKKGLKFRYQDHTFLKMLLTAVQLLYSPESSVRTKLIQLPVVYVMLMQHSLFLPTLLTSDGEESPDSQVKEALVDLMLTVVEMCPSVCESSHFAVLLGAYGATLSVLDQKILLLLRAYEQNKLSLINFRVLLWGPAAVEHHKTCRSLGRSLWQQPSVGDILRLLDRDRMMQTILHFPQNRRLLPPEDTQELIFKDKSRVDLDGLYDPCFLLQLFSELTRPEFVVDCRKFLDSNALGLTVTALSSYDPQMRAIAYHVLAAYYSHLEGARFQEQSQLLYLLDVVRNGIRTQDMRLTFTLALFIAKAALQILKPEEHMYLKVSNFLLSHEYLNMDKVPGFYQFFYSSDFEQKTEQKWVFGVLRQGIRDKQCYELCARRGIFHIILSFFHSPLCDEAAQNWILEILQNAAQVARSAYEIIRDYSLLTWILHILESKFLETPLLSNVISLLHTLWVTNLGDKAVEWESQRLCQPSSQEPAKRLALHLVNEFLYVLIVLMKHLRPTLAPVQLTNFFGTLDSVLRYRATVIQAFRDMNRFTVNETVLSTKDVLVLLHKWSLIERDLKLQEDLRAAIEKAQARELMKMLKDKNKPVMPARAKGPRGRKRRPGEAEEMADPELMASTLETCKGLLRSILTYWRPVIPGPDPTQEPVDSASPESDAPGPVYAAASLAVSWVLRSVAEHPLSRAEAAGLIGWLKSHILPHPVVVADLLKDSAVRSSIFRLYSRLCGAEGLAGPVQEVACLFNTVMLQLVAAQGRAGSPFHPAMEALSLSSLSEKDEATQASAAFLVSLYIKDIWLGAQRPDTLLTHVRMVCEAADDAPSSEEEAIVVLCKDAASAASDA
UniProt Q8NB14, 545-568: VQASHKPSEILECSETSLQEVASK

compound: ClCC(=O)N[C@@H]1CCCc2ccccc12; experiment: log2 mean competition ratio of IA-DTB cysteine labelling (DMSO/compound) (log2 ratio); higher = stronger cysteine engagement by compound; conditions: 50 µM; treatment time: 4 h; cell line lysate: HEK293T
Experimental: (§1)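 IA-DTB competitive cysteine chemoproteomics in HEK293T RIPA lysate. Lysates were treated with compound 29 or 30 at 50 or 200 µM for 4 h, then IA-DTB (500 µM, 1 h), trypsin-digested, NeutrAvidin-enriched and analysed by diaPASEF. Competition ratio = intensity DMSO / intensity compound (n=4 treated, n=64 DMSO); binding: mean log2 CR ≥ 1 and p ≤ 0.05 plus QC filters. Target is the cysteine site.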

Target | log2 mean competition ratio
USP54 C1394 (UniProt Q70EL1) | -0.283
USP54 C88 (UniProt Q70EL1) | 0.0884
UTP20 C1384 (UniProt O75691) | -0.0417
VDAC2 C76 | 0.323
UTP6 C524 (UniProt Q9NYH9) | 0.105
UTP18 C241 (UniProt Q9Y5J1) | 0.381
USP3 C385 (UniProt Q9Y6I4) | 0.328
UGP2 C123 | 0.109
UXS1 C230 (UniProt Q8NBZ7) | 0.15
USP3 C157 (UniProt Q9Y6I4) | -0.295
UTRN C2986 (UniProt P46939) | 0.128
UROS C119 (UniProt P10746) | -0.225
UTP25 C642 | -0.198
UTY C76 | 0.227
USP1 C71 (UniProt O94782) | -0.373
USP34 C1731 (UniProt Q70CQ2) | 0.108
USP34 C2033 (UniProt Q70CQ2) | 0.00301
UGGT1 C1493 (UniProt Q9NYU2) | 0.305
VARS2 C793 | -0.0686

Target | log2 mean competition ratio
UNK C696 (UniProt Q9C0B0) | -0.161
USF1 C229 (UniProt P22415) | -0.0147
UMPS C255 (UniProt P11172) | -0.123
UTP23 C207 (UniProt Q9BRU9) | 0.11
USP42 C1145 (UniProt Q9H9J4) | -0.178
UBR5 C2267 (UniProt O95071) | 0.554
USP34 C638 (UniProt Q70CQ2) | -0.152
URGCP C49 (UniProt Q8TCY9) | -0.593
VPS18 C806 (UniProt Q9P253) | 0.0976
UQCRC2 C192 (UniProt P22695) | -0.077
USP24 C14 (UniProt Q9UPU5) | -0.00706
USP35 C213 | -0.123
USP9X C1451 (UniProt Q93008) | -0.052
VPS11 C709 (UniProt Q9H270) | -0.241
UBR5 C739 (UniProt O95071) | 0.0252
URB1 C473 (UniProt O60287) | -0.216
USP38 C557 (UniProt Q8NB14) | -0.356
UBXN2B C127 (UniProt Q14CS0) | 0.175

same assay, conditions: 200 µM; treatment time: 4 h; cell line lysate: HEK293T

Target | log2 mean competition ratio
USP54 C1394 (UniProt Q70EL1) | 0.115
USP54 C88 (UniProt Q70EL1) | 0.301
UTP20 C1384 (UniProt O75691) | -0.658
VDAC2 C76 | -0.233
UTP6 C524 (UniProt Q9NYH9) | 0.0205
UTP18 C241 (UniProt Q9Y5J1) | -0.386
USP3 C385 (UniProt Q9Y6I4) | 0.0536
UGP2 C123 | -0.0529
UXS1 C230 (UniProt Q8NBZ7) | -0.0576
USP3 C157 (UniProt Q9Y6I4) | 0.593
UTRN C2986 (UniProt P46939) | 0.0345
UROS C119 (UniProt P10746) | -0.326
UTP25 C642 | -0.117
UTY C76 | -0.332
USP1 C71 (UniProt O94782) | 0.00964
USP34 C1731 (UniProt Q70CQ2) | 0.199
USP34 C2033 (UniProt Q70CQ2) | -0.0332
UGGT1 C1493 (UniProt Q9NYU2) | 0.393
VARS2 C793 | 0.2

Target | log2 mean competition ratio
UNK C696 (UniProt Q9C0B0) | 0.124
USF1 C229 (UniProt P22415) | 0.144
UMPS C255 (UniProt P11172) | -0.114
UTP23 C207 (UniProt Q9BRU9) | -0.359
USP42 C1145 (UniProt Q9H9J4) | -0.283
UBR5 C2267 (UniProt O95071) | -0.158
USP34 C638 (UniProt Q70CQ2) | 0.0977
URGCP C49 (UniProt Q8TCY9) | 0.146
VPS18 C806 (UniProt Q9P253) | -0.12
UQCRC2 C192 (UniProt P22695) | -0.119
USP24 C14 (UniProt Q9UPU5) | -0.00448
USP35 C213 | 0.178
USP9X C1451 (UniProt Q93008) | -0.0331
VPS11 C709 (UniProt Q9H270) | -0.41
UBR5 C739 (UniProt O95071) | -0.542
URB1 C473 (UniProt O60287) | 0.0154
USP38 C557 (UniProt Q8NB14) | 0.0621
UBXN2B C127 (UniProt Q14CS0) | 0.158

compound: ClCC(=O)N[C@H]1CCCc2ccccc12; experiment: as above; conditions: 50 µM; treatment time: 4 h; cell line lysate: HEK293T
Experimental: as §1

Target | log2 mean competition ratio
USP54 C1394 (UniProt Q70EL1) | 0.109
USP54 C88 (UniProt Q70EL1) | 0.186
UTP20 C1384 (UniProt O75691) | -0.506
VDAC2 C76 | 0.0597
UTP6 C524 (UniProt Q9NYH9) | -0.226
UTP18 C241 (UniProt Q9Y5J1) | 0.367
USP3 C385 (UniProt Q9Y6I4) | 0.657
UGP2 C123 | 0.0375
UXS1 C230 (UniProt Q8NBZ7) | 0.0508
USP3 C157 (UniProt Q9Y6I4) | -0.1
UTRN C2986 (UniProt P46939) | 0.388
UROS C119 (UniProt P10746) | -0.325
UTP25 C642 | -0.193
USP1 C71 (UniProt O94782) | -0.201
USP34 C1731 (UniProt Q70CQ2) | -0.178
USP34 C2033 (UniProt Q70CQ2) | 0.0177

Target | log2 mean competition ratio
UGGT1 C1493 (UniProt Q9NYU2) | -0.171
VARS2 C793 | -0.195
UNK C696 (UniProt Q9C0B0) | 0.325
USF1 C229 (UniProt P22415) | -0.375
UMPS C255 (UniProt P11172) | 0.0121
UTP23 C207 (UniProt Q9BRU9) | 0.396
USP42 C1145 (UniProt Q9H9J4) | 0.0156
UBR5 C2267 (UniProt O95071) | 0.496
USP34 C638 (UniProt Q70CQ2) | 0.114
UQCRC2 C192 (UniProt P22695) | -0.15
USP24 C14 (UniProt Q9UPU5) | 0.43
USP9X C1451 (UniProt Q93008) | 0.191
VPS11 C709 (UniProt Q9H270) | -0.164
URB1 C473 (UniProt O60287) | -0.137
USP38 C557 (UniProt Q8NB14) | -0.558
